In the supplement of paper PMC7024190 one finds log data, which are given here for 33 molecules.

The other results are listed elsewhere or left out. Repeats in this data set agree poorly, so a single value says little.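 A first-round screen of about ten thousand compounds sought those raising reporter output, using human embryonic kidney cells briefly transfected with a plasmid carrying a Renilla luciferase gene driven by the HSV-TK promoter.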

This assay deals with HEK 293FT. Description: log relative Renilla luciferase luminescence (reporter expression vs reference, reference not stated) (log (base not stated)); higher = higher recombinant reporter expression. The following applies: 10 µM; time after transfection 48 h. On the procedure:
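HEK 293FT cells transiently transfected with pRL-TK (Renilla luciferase) were treated with compounds at 10 uM and luminescence was read about 42 h later. Values are log relative Renilla luminescence (log base and reference not stated). Single-pass screen; 2080 natural products library.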
In the case of `COc1cc([C@H](O)[C@@H](O)CO)cc(OC)c1O` [threo-1-C-Syringylglycerol], the log was found to be 0.0594.
`COc1ccc2ccc(=O)oc2c1C[C@H](O)C(C)(C)O` [Meranzin hydrate]: the log was -0.0849.
Then `C[C@@H]1O[C@@H](Oc2cc(O)c3c(=O)c(O[C@@H]4O[C@@H](C)[C@H](O)[C@@H](O)[C@H]4O)c(-c4ccc(O)cc4)oc3c2)[C@H](O)[C@H](O)[C@H]1O` [Kaempferitrin], with 9.38e-05; and `COc1cc(/C=C/c2ccccc2)cc(OC(C)=O)c1` [(E)-3-Acetoxy-5-methoxystilbene], with -0.279; and `C[C@H](CC[C@@H](O)C(C)(C)O)[C@H]1CC[C@@]2(C)C3=CC[C@H]4C(C)(C)C(=O)CC[C@]4(C)C3=CC[C@]12C` [Ganodermanondiol], with 0.143.
Next, `Oc1ccc2c(c1)OC[C@H]1c3cc4c(cc3O[C@@H]21)OCO4` [(-)-Maackiain]: -0.106; `CC(=O)Oc1cc(OC(C)=O)c2c(c1)OC(c1c(OC(C)=O)cccc1OC(C)=O)CC2=O` (stereo not drawn) [2',5,6',7-Tetraacetoxyflavanone]: -0.337.
Take `CC(=O)Oc1cc(OC(C)=O)c2c(c1)OC(c1ccccc1)CC2=O` (stereo not drawn) [Pinocembrin diacetate]: the log was -0.262.
Next, `COc1ccc(CCO[C@@H]2O[C@H](COC(C)=O)[C@@H](OC(=O)/C=C/c3ccc(OC(C)=O)c(OC(C)=O)c3)[C@H](O[C@@H]3O[C@@H](C)[C@H](OC(C)=O)[C@@H](OC(C)=O)[C@H]3OC(C)=O)[C@H]2OC(C)=O)cc1OC` [Brachynoside heptaacetate]: 0.0724; `CC(=O)O[C@@H]([C@@H](C)[C@@H]1[C@H]2[C@]1(C)CC[C@@]13O[C@]2(O)C(=O)[C@@H]1CC[C@H]1C(C)(C)O[C@@H]2CC(=O)O[C@@]21[C@H]3O)[C@@H]1CC(C)C(=O)O1` (stereo partly drawn) [Pre-schisanartanin B]: 0.0981.
Then `COc1cc([C@H]2Oc3c(OC)cc4ccc(=O)oc4c3O[C@@H]2CO)cc(OC)c1O` [Cleomiscosin C], with 0.141.
Next, `COc1cccc(O)c1` [m-Methoxyphenol]: 0.0171; `C=C(C)[C@@H]1CC[C@]2(C)CC[C@]3(C)[C@@H](CC[C@@H]4[C@@]5(C)[C@@H](O)C[C@H](O)C(C)(C)[C@@H]5CC[C@]43C)[C@@H]12` [Glochidiol]: -0.104.
For `COc1cc(O)c2c(=O)cc(-c3ccc(O)cc3)oc2c1` [Genkwanin], the log is 0.0179.
As to `OCCC1(O)CCC(O)CC1` (stereo not drawn) [Rengyol], the log was -0.0904.
On to `O=c1oc2c(O)c(O)cc3c(=O)oc4c(O)c(O)cc1c4c23` [Ellagic acid], for which the log worked out at 0.0838.
Next, `C[C@@H]1CC[C@]2(C(=O)O)CC[C@]3(C)C(=CC[C@@H]4[C@@]5(C)C[C@@H](O)[C@H](O)C(C)(C)[C@@H]5CC[C@]43C)[C@@H]2[C@]1(C)O` [Tormentic acid]: -0.129; `CC1C(=O)C23CC1CCC2C1(COC3=O)C(=O)C=CC(C)(C)C1C=O` (stereo not drawn) [Epieriocalyxin A]: -0.0106.
Consider `CC1(O)CCC(C(C)(C)O)C(O)C1` (stereo not drawn) [p-Menthan-1,3,8-triol], for which the log is -0.142.
In the case of `COc1ccc(-c2oc3c(OC)c(O)cc(O)c3c(=O)c2OC)cc1` [5,7-Dihydroxy-3,4',8-trimethoxyflavone], the log was -0.253.
As to `C=C1CCC(C(C)C)=C[C@H]2[C@@H]1CC[C@@]2(C)O` [Alismol], the log was -0.89.
With `C=C(C)[C@@H]1CC[C@@H]2C(=CC[C@]3(C)C(=O)CC[C@@]23C)[C@@]1(C)CCC(=O)O` [Micranoic acid A], the log is -0.0849.
Then `CC1(C)[C@H](O)CC[C@@]2(C)[C@@H]3CC[C@](C)([C@@H](O)CO)C=C3[C@@H](O)C[C@H]12` [7-Hydroxydarutigenol], with -0.222.
With `O=C1CC[C@@]2(O)CCO[C@H]2C1` [Cleroindicin C], the log is 0.015.
Next, `COc1c2occc2cc2ccc(=O)oc12` [Xanthotoxin]: 0.0164; `C[C@H]1C[C@@H]2OC(=O)[C@@H](CO)[C@@H]2[C@@H]1CO` [Gelsemiol]: -0.199; `CC[C@H](CC[C@@H](C)[C@H]1C(O)C[C@H]2[C@@H]3C(O)C=C4CC(O)CC[C@]4(C)[C@H]3CC[C@]12C)C(C)C` (stereo partly drawn) [3,7,16-Trihydroxystigmast-5-ene]: -0.125.
Next, `CC(=O)O[C@@H]1C2=C(C)[C@@H](OC(C)=O)[C@H](OC(=O)c3ccccc3)[C@@](O)([C@@H](O)[C@@H]3[C@]4(OC(C)=O)CO[C@@H]4C[C@H](OC(C)=O)[C@@]3(C)[C@H]1OC(C)=O)C2(C)C` [14beta-Benzoyloxy-2-deacetylbaccatin VI]: 0.041.
Then `CCOC(=O)c1ccc(O)cc1` [Ethylparaben], with -0.00168.
Consider `O=C(O)C[C@H]1CCC(=O)[C@@H]1C/C=C\CCO` [12-Hydroxyjasmonic acid], for which the log is 0.11.
Then `C=C1[C@H]2CC[C@]3([C@@H](C2)[C@]24CCC[C@]5(C)[C@H]2C[C@H]3O[C@H]4N2CCO[C@@H]25)[C@H]1OC(C)=O` [Spiramine A], with 0.035; and `COc1cc(-c2oc3c(OC)c(OC)cc(OC)c3c(=O)c2OC)cc(OC)c1OC` [3',4',5',3,5,7,8-Heptamethoxyflavone], with -0.188.
As to `CC1(C)CC[C@]2(C)CC[C@]3(C)C(=CC[C@@H]4[C@@]5(C)CC[C@H](O)C(C)(C)[C@@H]5CC[C@]43C)[C@@H]2C1` [beta-Amyrin], the log is -0.163.
